The other results are listed elsewhere or left out. Further columns of the screen follow, without active or inactive calls. Most of these compounds were active or inconclusive in the main read-out, so they are no random draw. The note in brackets gives the kind of curve behind each potency; many fits are weak.
Assay: qHTS Assay to Find Inhibitors of Chronic Active B-Cell Receptor Signaling
Settings: ABC-DLBCL IkBa-CBG/CBR reporter, luminescence ratio (green luciferase fused to IkBa over red control in TMD8 lymphoma cells), 4 h
How it was run: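 Compounds up to 46 uM were incubated four hours with TMD8 cells whose green CBG68 luciferase is fused to IkappaBalpha; red CBR luminescence normalised the signal, and concentration-effect curves were fitted to fusion, red and ratio data.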

[1] = measured here: CBR red luminescence, cell number

Row | SMILES | AC50 [1] | AC50 (measured here: IkBa-CBG green luminescence)
1 | Cc1ccc(-c2nnc3n2N=C(c2ccccc2)CS3)cc1 | 1.84 µM [falling, partial curve, poor fit] | 
2 | Cc1ccc(O)c(-c2[nH]ncc2C(=O)c2ccc(Cl)cc2)c1 | 20 µM [falling, single point] | 
3 | O=C(Nc1cc(Cl)cc(Cl)c1)C1CCCC1 | 0.112 µM [rising, full curve, poor fit] | 
4 | CCOC(=O)COc1ccc(C(=O)c2ccccc2)c(O)c1 | 0.112 µM [rising, full curve, poor fit] | 
5 | O=C(Nc1ccc([N+](=O)[O-])cc1)C1COc2ccccc2O1 (stereo not drawn) | 3.55 µM [rising, full curve] | 
6 | C/C(=N\NC(=O)c1cccc(Br)c1)c1ccccn1 | 5.62 µM [rising, single point] | 
7 | CC(CNC(=O)c1ccc(N)cc1)NC(=O)c1ccc(N)cc1 (stereo not drawn) | 28.2 µM [falling, single point] | 
8 | CC(C)N(C(=O)[C@H]1CC(CC(=O)NCCCN(C)C)C(=O)N2CCc3c([nH]c4ccccc34)[C@]12C)C(C)C (stereo partly drawn) | 1.84 µM [rising, partial curve, poor fit] | 
9 | O=C(O)C1CCCCC1C(=O)NCCCCc1ccccc1 (stereo not drawn) | 11.2 µM [rising, single point] | 
10 | COc1cccc(OCc2nn3c(=O)c(-c4ccccc4)nnc3s2)c1 | 0.562 µM [rising, full curve, poor fit] | 
11 | COc1cccc(CN(C)C(=O)COc2ccc(C(=O)c3ccc(Cl)cc3)cc2)c1OC | 35.5 µM [falling, single point] | 
12 | CCCCCCSc1nc(O)c(C2OC(=O)c3c2ccc(OC)c3OC)c(=O)n1CC (stereo not drawn) | 1.16 µM [falling, full curve, poor fit] | 
13 | O=C(CSc1ccc2ccccc2n1)N/N=C/c1ccccc1O | 1.58 µM [falling, full curve] | 
14 | Cc1nc2ncnn2c(C)c1Cc1ccccc1Cl | 1.3 µM [falling, partial curve, poor fit] | 
15 | CC(=O)c1sc(NC(=O)c2c(F)cccc2F)nc1-c1ccccc1 | 1.12 µM [falling, partial curve, poor fit] | 
16 | COc1ccc(NC(=O)c2ccc(S(=O)(=O)N3CCOCC3)cc2)c(OC)c1 | 3.26 µM [rising, single point] | 
17 | O=C(/C=C/c1ccccc1)Nc1nc(-c2ccncc2)cs1 | 0.562 µM [rising, full curve, poor fit] | 
18 | CCOc1cc(C(=O)Nc2ccc(F)cc2)cc(Br)c1OC | 32.6 µM [falling, single point] | 
19 | Cc1ccccc1CN(c1ccc(C(=O)N2CCc3ccccc3C2)cc1)S(C)(=O)=O | 6.31 µM [rising, single point] | 
20 | Cc1cccc(C)c1Nc1c(-c2ccccc2O)nc2ncccn12 | 0.794 µM [falling, full curve, poor fit] | 
21 | Cn1c(=O)c2cc(S(=O)(=O)Nc3ccc4c(c3)OCO4)ccc2n(C)c1=O | 20.6 µM [falling, single point] | 

Full records as entered above:
`C/C(=N\NC(=O)c1cccc(Br)c1)c1ccccn1` is listed as AC50 [1]: 5.62 µM [rising, single point]
`Cn1c(=O)c2cc(S(=O)(=O)Nc3ccc4c(c3)OCO4)ccc2n(C)c1=O` is listed as AC50 [1]: 20.6 µM [falling, single point]

Going on with the list.

Row | SMILES | AC50 [1] | AC50 (measured here: IkBa-CBG green luminescence)
22 | Brc1ccc(-c2csc(N3CCOCC3)n2)cc1 | 12.6 µM [rising, partial curve, poor fit] | 
23 | CC(=O)NNc1nc(-c2ccccc2)cs1 | 17.8 µM [falling, single point] | 
24 | Cc1oc2c(c(C)cc3oc(=O)c(CC(=O)NCC(=O)NCC(=O)NCC(C)O)c(C)c32)c1C (stereo not drawn) | 3.98 µM [rising, partial curve, poor fit] | 
25 | Cc1ccc(C(=O)Nc2ccc(F)cc2)cc1S(=O)(=O)N1CCOCC1 | 3.98 µM [rising, partial curve, poor fit] | 
26 | COc1ccc2oc(=O)c(C(=O)N3CCCc4ccccc43)cc2c1 | 32.6 µM [rising, single point] | 
27 | NNC(=O)c1[nH]c2ccc(Br)cc2c1-c1ccccc1 | 6.31 µM [rising, full curve] | 3.98 µM [falling, full curve]
28 | COc1ccc(CNc2cc(C)ccn2)c(O)c1 | 11.2 µM [rising, partial curve] | 
29 | O=C(N/C(=C/c1ccccc1F)C(=O)N1CCCCC1)c1ccccc1 | 35.5 µM [rising, single point] | 
30 | O=C(NNC(=O)c1ccc[nH]1)c1cc(Cl)cc(Cl)c1 | 22.4 µM [falling, single point] | 
31 | O=C(c1ccc(F)c(S(=O)(=O)N2CCOCC2)c1)N1CCN(c2ncccn2)CC1 | 2.91 µM [rising, partial curve, poor fit] | 
32 | COC(=O)N/N=C/c1cc(N=Nc2ccccc2Cl)ccc1O | 1.12 µM [rising, full curve] | 
33 | Cc1ccsc1C(=O)N1CCN(C(=O)c2ccco2)CC1 | 29.1 µM [rising, single point] | 
34 | O=C(OCC(=O)c1ccc[nH]1)c1ccc(S(=O)(=O)N2CCCCC2)cc1 | 0.461 µM [falling, full curve, poor fit] | 
35 | COc1ccc(CN(CCC#N)C(=S)NC(=O)c2ccccc2)cc1 | 3.16 µM [rising, single point] | 
36 | COc1ccc(Nc2c3c(nc4ccccc24)CCC3)cc1 | 20 µM [falling, partial curve, poor fit] | 
37 | C/C(=N\Nc1ccc(Cl)c(C(=O)O)c1)c1cc2ccccc2o1 | 35.5 µM [falling, single point] | 
38 | CO/N=C/c1cc([N+](=O)[O-])ccc1Sc1ccc(C)cc1 | 0.461 µM [rising, full curve] | 
39 | CC(/C=N/NC(=O)c1cc(-c2cccs2)[nH]n1)=C\c1ccccc1 | 2.06 µM [falling, full curve] | 
40 | CCOc1cc(/C=C2/COc3ccccc3C2=O)ccc1OCC(=O)N(C)C | 6.31 µM [falling, full curve] | 
41 | CCOC(=O)Cc1csc(NC(=O)c2ccc(Cl)s2)n1 | 4.47 µM [falling, full curve, poor fit] | 
42 | COc1cccc(C(=O)NC(=S)N2c3ccccc3CC2C)c1OC (stereo not drawn) | 10 µM [rising, single point] | 

Source: PubChem BioAssay AID493014 (National Center for Advancing Translational Sciences (NCATS), 2011)
